Measured values as given in patent US20250129140A1, “ANTI-HCMV ANTIBODIES AND ANTIGEN-BINDING FRAGMENTS THEREOF” (ICAHN SCHOOL OF MEDICINE AT MOUNT SINAI, priority 2021, published 2025).

System: gH (TB40/E strain) peptides
Experiment: PEPperCHIP cyclic gH peptide microarray epitope mapping
Assay type: binding, Human cytomegalovirus
Conditions: peptides of 7, 10 and 13 aa

| Molecule | gH peptide bound, domain 1 [HRPHF191] | gH peptide(s) bound, domain 2 |
| --- | --- | --- |
| 15G11: anti-HCMV gH/gL monoclonal antibody, fusion 1; VH SEQ ID NO:52, VL SEQ ID NO:53; chimeric and fully human IgG1 versions (antibody, V domains shown, IgG1 constant regions, anti-HCMV gH/gL monoclonal antibody, fusion 1; chimeric and fully human IgG1 versions) VH: QVQLQESGPGLVKPSQTLSLTCTVSGGSISSGYYYWNWIRQHPGKGLECIGYIYYSGTTYYNPSLKSRLFISVDTSKNQFSLKLRSVTAADTAVYYCARGGLGAFDIWGQGTMVTVSS VL: EIVLTQSPGTLSLSPGERATLSCRASQSVSSSYLAWYQQKPGQAPRLLIYGASSRAPGIPDRFSGTGSGTDFTLTISRLEPEDFAVYYCQQYGISPLTFGGGTKVEIK | 187 | 426 […] 438 |
| 9A12: anti-HCMV gH/gL monoclonal antibody, fusion 2; VH SEQ ID NO:59, VL SEQ ID NO:60; chimeric and fully human IgG1 versions (antibody, V domains shown, IgG1 constant regions, anti-HCMV gH/gL monoclonal antibody, fusion 2; chimeric and fully human IgG1 versions) VH: EVQLVESGGVLVQPGGSLRLSCAASGFTFSSHEMNWVRQAPGKGLEWISYISSTGSTIYDADSVKGRFTISRDNAKNSLYLQMNSLRAEDTAVYYCARSSGWYRNYSYGMDVWGQGTTVTVSS VL: DIQMAQSPSSLSASVGDRVTITCRASQGIYNYLAWFQQKPGKAPKSLIYAASSLQTGVPSKFSGSGSGTDFTLTISNLQPEDFATYYCQQYNSFPRTFGQGTKVEIK | 187 | 426 […] 438 |
